From paper doi:10.1101/842799 come the findings set out here.

Sequences of proteins named here, by UniProt entry; tags and fusion partners are left off. A change or cut given only in a name is not applied to a line headed by its entry. A line that says so, or that is headed by a name, gives the form on record, which may keep a tag or linker.
UniProt Q05195: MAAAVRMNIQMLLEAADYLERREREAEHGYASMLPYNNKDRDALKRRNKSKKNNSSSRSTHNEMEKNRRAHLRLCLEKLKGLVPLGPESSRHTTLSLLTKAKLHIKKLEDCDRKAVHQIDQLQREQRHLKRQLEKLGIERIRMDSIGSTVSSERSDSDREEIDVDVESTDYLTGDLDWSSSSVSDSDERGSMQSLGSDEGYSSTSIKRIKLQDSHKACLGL
MXD1 RR68DD (Q05195, form named): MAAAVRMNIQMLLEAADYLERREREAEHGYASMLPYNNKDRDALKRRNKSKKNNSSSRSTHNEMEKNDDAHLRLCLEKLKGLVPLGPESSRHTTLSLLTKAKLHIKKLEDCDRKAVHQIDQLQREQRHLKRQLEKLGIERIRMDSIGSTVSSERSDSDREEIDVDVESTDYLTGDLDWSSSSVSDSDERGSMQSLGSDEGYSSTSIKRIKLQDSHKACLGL

Sequences and labels used below:
B1: V5-tagged MNT (protein, UniProt Q99583 1-582)
chain: MSIETLLEAARFLEWQAQQQQRAREEQERLRLEQEREQEQKKANSLARLAHTLPVEEPRMEAPPLPLSPPAPPPAPPPPLATPAPLTVIPIPVVTNSPQPLPPPPPLPAAAQPLPLAPRQPALVGAPGLSIKEPAPLPSRPQVPTPAPLLPDSKATIPPNGSPKPLQPLPTPVLTIAPHPGVQPQLAPQQPPPPTLGTLKLAPAEEVKSSEQKKRPGGIGTREVHNKLEKNRRAHLKECFETLKRNIPNVDDKKTSNLSVLRTALRYIQSLKRKEKEYEHEMERLAREKIATQQRLAELKHELSQWMDVLEIDRVLRQTGQPEDDQASTSTASEGEDNIDEDMEEDRAGLGPPKLSHRPQPELLKSTLPPPSTTPAPLPPHPHPHPHSVALPPAHLPVQQQQPQQKTPLPAPPPPPAAPAQTLVPAPAHLVATAGGGSTVIAHTATTHASVIQTVNHVLQGPGGKHIAHIAPSAPSPAVQLAPATPPIGHITVHPATLNHVAHLGSQLPLYPQPVAVSHIAHTLSHQQVNGTAGLGPPATVMAKPAVGAQVVHHPQLVGQTVLNPVTMVTMPSFPVSTLKLA
B2: V5-tagged MNT L258D (protein, UniProt Q99583 1-582)
chain: MSIETLLEAARFLEWQAQQQQRAREEQERLRLEQEREQEQKKANSLARLAHTLPVEEPRMEAPPLPLSPPAPPPAPPPPLATPAPLTVIPIPVVTNSPQPLPPPPPLPAAAQPLPLAPRQPALVGAPGLSIKEPAPLPSRPQVPTPAPLLPDSKATIPPNGSPKPLQPLPTPVLTIAPHPGVQPQLAPQQPPPPTLGTLKLAPAEEVKSSEQKKRPGGIGTREVHNKLEKNRRAHLKECFETLKRNIPNVDDKKTSNDSVLRTALRYIQSLKRKEKEYEHEMERLAREKIATQQRLAELKHELSQWMDVLEIDRVLRQTGQPEDDQASTSTASEGEDNIDEDMEEDRAGLGPPKLSHRPQPELLKSTLPPPSTTPAPLPPHPHPHPHSVALPPAHLPVQQQQPQQKTPLPAPPPPPAAPAQTLVPAPAHLVATAGGGSTVIAHTATTHASVIQTVNHVLQGPGGKHIAHIAPSAPSPAVQLAPATPPIGHITVHPATLNHVAHLGSQLPLYPQPVAVSHIAHTLSHQQVNGTAGLGPPATVMAKPAVGAQVVHHPQLVGQTVLNPVTMVTMPSFPVSTLKLA
B3: MNT RR232DD (protein, UniProt Q99583 1-582)
chain: MSIETLLEAARFLEWQAQQQQRAREEQERLRLEQEREQEQKKANSLARLAHTLPVEEPRMEAPPLPLSPPAPPPAPPPPLATPAPLTVIPIPVVTNSPQPLPPPPPLPAAAQPLPLAPRQPALVGAPGLSIKEPAPLPSRPQVPTPAPLLPDSKATIPPNGSPKPLQPLPTPVLTIAPHPGVQPQLAPQQPPPPTLGTLKLAPAEEVKSSEQKKRPGGIGTREVHNKLEKNDDAHLKECFETLKRNIPNVDDKKTSNLSVLRTALRYIQSLKRKEKEYEHEMERLAREKIATQQRLAELKHELSQWMDVLEIDRVLRQTGQPEDDQASTSTASEGEDNIDEDMEEDRAGLGPPKLSHRPQPELLKSTLPPPSTTPAPLPPHPHPHPHSVALPPAHLPVQQQQPQQKTPLPAPPPPPAAPAQTLVPAPAHLVATAGGGSTVIAHTATTHASVIQTVNHVLQGPGGKHIAHIAPSAPSPAVQLAPATPPIGHITVHPATLNHVAHLGSQLPLYPQPVAVSHIAHTLSHQQVNGTAGLGPPATVMAKPAVGAQVVHHPQLVGQTVLNPVTMVTMPSFPVSTLKLA
B4: V5-tagged MXD2 (protein, UniProt P50539 1-228)
chain: MERVKMINVQRLLEAAEFLERRERECEHGYASSFPSMPSPRLQHSKPPRRLSRAQKHSSGSSNTSTANRSTHNELEKNRRAHLRLCLERLKVLIPLGPDCTRHTTLGLLNKAKAHIKKLEEAERKSQHQLENLEREQRFLKWRLEQLQGPQEMERIRMDSIGSTISSDRSDSEREEIEVDVESTEFSHGEVDNISTTSISDIDDHSSLPSIGSDEGYSSASVKLSFTS
B5: MXD2 RR79DD (protein, UniProt P50539 1-228)
chain: MERVKMINVQRLLEAAEFLERRERECEHGYASSFPSMPSPRLQHSKPPRRLSRAQKHSSGSSNTSTANRSTHNELEKNDDAHLRLCLERLKVLIPLGPDCTRHTTLGLLNKAKAHIKKLEEAERKSQHQLENLEREQRFLKWRLEQLQGPQEMERIRMDSIGSTISSDRSDSEREEIEVDVESTEFSHGEVDNISTTSISDIDDHSSLPSIGSDEGYSSASVKLSFTS

No constants are given. Whether binding was seen depends on the method and setting. In cells and extracts the contact can be indirect. Some entries that bind do so weakly or less than the wild type. Tags and fused reporters may be left off the sequences shown.

For this assay, the target named is T1, FLAG-tagged MIZ1 (UniProt Q13105).
T1 sequence: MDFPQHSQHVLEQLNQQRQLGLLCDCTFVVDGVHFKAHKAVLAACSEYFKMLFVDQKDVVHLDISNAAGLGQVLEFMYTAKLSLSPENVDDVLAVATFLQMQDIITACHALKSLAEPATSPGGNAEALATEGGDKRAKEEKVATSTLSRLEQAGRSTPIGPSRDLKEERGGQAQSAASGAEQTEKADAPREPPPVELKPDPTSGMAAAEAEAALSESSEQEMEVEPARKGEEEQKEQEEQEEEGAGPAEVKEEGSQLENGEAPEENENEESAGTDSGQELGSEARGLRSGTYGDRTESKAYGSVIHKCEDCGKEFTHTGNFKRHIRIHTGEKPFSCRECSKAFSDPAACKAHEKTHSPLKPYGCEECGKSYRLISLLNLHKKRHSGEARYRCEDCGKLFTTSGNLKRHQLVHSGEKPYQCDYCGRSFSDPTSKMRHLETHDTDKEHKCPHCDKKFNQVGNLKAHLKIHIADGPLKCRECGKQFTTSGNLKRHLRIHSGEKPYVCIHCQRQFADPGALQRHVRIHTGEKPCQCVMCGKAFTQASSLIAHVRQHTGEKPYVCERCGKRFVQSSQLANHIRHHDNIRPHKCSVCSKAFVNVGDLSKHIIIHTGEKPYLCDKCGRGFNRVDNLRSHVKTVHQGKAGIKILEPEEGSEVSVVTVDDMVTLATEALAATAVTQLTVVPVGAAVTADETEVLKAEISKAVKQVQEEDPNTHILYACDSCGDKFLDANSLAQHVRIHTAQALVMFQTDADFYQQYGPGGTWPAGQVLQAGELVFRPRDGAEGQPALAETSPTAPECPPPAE
The assay is described as follows: co-IP.
Consider MXD1 RR68DD (from UniProt Q05195 1-221), for which the binding result is “binds”.
On to “V5-tagged MXD1 (from UniProt Q05195 1-221)”, for which the binding entry was “binds”.
In the case of B1, the binding result is reported as “binds”.
Regarding B2, the binding result is recorded as “no binding”.
For B3 the value was “binds”; for B4, “binds”.
For B5 the value was “binds”.
